The values below come from patent US7786083B2 (Takeda Pharmaceutical Company Limited, priority 2006, dated 2010).

Data set [1] is described as follows: general procedure: Fmoc solid-phase peptide synthesis; Rink Amide MBHA resin; DCC/HOBt; DIPCDI/HOOBt; DIPCDI/HOAt; PyAOP/HOAt/DIEA; PyBrop/HOAt/DIEA. Conditions: whole synthesis, acetate.
Data set [2] can be described thus: general procedure: Fmoc solid-phase peptide synthesis; Rink Amide MBHA; DCC/HOBt; DIPCDI/HOOBt; DIPCDI/HOAt; PyAOP/HOAt/DIEA; PyBrop/HOAt/DIEA. Conditions: whole synthesis, scale 0.25 mmol, acetate; run 1.
Data set [3] can be described thus: general procedure: Fmoc solid-phase peptide synthesis; Fmoc-Rink Amide MBHA resin; DCC/HOBt; DIPCDI/HOOBt; DIPCDI/HOAt; PyAOP/HOAt/DIEA; PyBrop/HOAt/DIEA. Conditions: whole synthesis, scale 0.55 mmol, acetate.

Where “and” joins values, the source holds several entries; their conditions need not be identical. Identical values can stand only once.

Consider “des(1)-Ac-[D-Tyr2,Hyp3,Thr5,Gly7Ψ((E)CH═CH)Leu8,Arg(Me)9,Trp10]MS10”, for which the isolated mass in data set [1] (scale 0.1 mmol) is given as 19.6 mg. In data set [1] (scale 0.952 mmol), “des(1)-Ac-[D-Tyr2,Hyp3,Thr5,Cha6,Ala(cPr)8,Arg(Me)9,Trp 10]MS10” registered a crude mass of 1.118 g. Moreover, the isolated mass turned out to be 389.3 mg in data set [1] (scale 0.952 mmol, run 1) and 368.6 mg in data set [1] (scale 0.952 mmol, run 2). Substance “des(1)-Ac-[D-Tyr2,Hyp3,Thr5,Gly7Ψ(CH2NH)Leu8,Arg(Me)9,Trp10]MS10 (YPNTFGLRW; D-residues; N-methyl; non-natural residues)” came in with an isolated mass in data set [1] (scale 0.05 mmol) of 0.6 mg.

For the substance “des(1)-Ac-[D-Tyr2,Hyp3,Thr5,Arg(Me)9,Trp 10]MS10”, the isolated mass in data set [2] was 114.6 mg and 93.4 mg.

Turning to “des(1)-Ac-[D-Tyr2,Hyp3,Alb4,Thr5,Cha6,Gly7Ψ((E)CH═CH)Leu8,Trp 10]MS10”, the isolated mass in data set [3] stood at 436.9 mg. Consider “des(1)-Ac-[D-Tyr2,Hyp3,Thr5,Gly7Ψ(CH2S)Leu8,Arg(Me)9,Trp10]MS10”, for which, in data set [1] (scale 0.02 mmol), the isolated mass is given as 2.7 mg.

On to “des(1)-Ac-[D-Tyr2,Hyp3,Thr5,Phe6T(CH2CH2)AzaGly7,Arg(Me)9,Trp10]MS10”, for which, in data set [1] (scale 0.03 mmol), the isolated mass was determined as 3.6 mg. Regarding “des(1)-Ac-[D-Tyr2,Hyp3,Thr5,Phe6Ψ(CH2O)Gly7,Arg(Me)9,Trp 10]MS10”, the isolated mass in data set [1] (scale 25 μmol, run 1) is 2.5 mg and 2.0 mg. On to “des(1)-Ac-[D-Tyr2,Hyp3,Thr5,Phe6T(CH2S)Gly7,Arg(Me)9,Trp 10]MS10”, for which the isolated mass in data set [1] (scale 0.045 mmol) is 5.0 mg. For the substance “des(1)-Ac-[D-Tyr2,Hyp3,Alb4,Thr5,Cha6,Gly7Ψ((E)CH═CH)Leu8,Arg(Me)9,Trp 10]MS10”, the isolated mass worked out at 352.2 mg in data set [1] (scale 1.5 mmol, run 1) and 321.8 mg in data set [1] (scale 1.5 mmol, run 2).
